Taken from: PubChem BioAssay AID1053208 (Peter MacCallum Cancer Centre, 2014)
In all, the deposit lists about 17,000 reagents; this is an unselected part. 788 of all reagents (4.7%) count as active. 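Calls rest on z-score classes alone; an extra cut-off of viability at most 70% of control was not applied to them.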 The numbers tell different reagents against one gene apart. Some reagents were tested in more than one well and are listed for each. Not all columns of the deposit are shown. No sequences are given here.

Aim: 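Find knock-downs that sensitise mouse osteosarcoma cells to doxorubicin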 (primary screen)
Cell system: mouse osteosarcoma cells, early-passage culture from an engineered mouse model of fibroblastic bone tumour
Reagent: siRNA pool against mouse genes, 40 nM
Duration: about 120 h (48 h before drug, then 72 h with drug)
Challenge: doxorubicin 100 nM for 72 h, roughly 30-40% inhibitory dose
Measurement: 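Luminescent ATP signal taken as viability with or without 100 nM doxorubicin for 72 h; mean of two wells set against non-targeting siRNA and turned into robust z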
Scale: viability z-score with doxorubicin: higher = more viable cells under doxorubicin; viability z-score without drug: higher = more viable cells with knock-down alone
Active means: 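Called active if knock-down leaves viability unchanged without drug (z within -2 to 2) but lowers it with doxorubicin (z at or under -2)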

Phf21a | combined z-score class: no change with or without drug; viability z-score with doxorubicin: -0.45; viability z-score without drug: -0.17; Outcome: inactive
Itgae | combined z-score class: no change with or without drug; viability z-score with doxorubicin: -0.22; viability z-score without drug: -0.34; Outcome: inactive
Il17rd #1 | combined z-score class: no change with or without drug; viability z-score with doxorubicin: 0; viability z-score without drug: 0.17; Outcome: inactive
Il17rd #2 | combined z-score class: no change with or without drug; viability z-score with doxorubicin: 0.34; viability z-score without drug: 0.34; Outcome: inactive
Rnf14 | combined z-score class: no change with or without drug; viability z-score with doxorubicin: 1.35; viability z-score without drug: 0.34; Outcome: inactive
Sars1 | combined z-score class: low cell count with doxorubicin only; viability z-score with doxorubicin: -3.15; viability z-score without drug: -0.17; Outcome: active
Nudc | combined z-score class: no change with or without drug; viability z-score with doxorubicin: 0.34; viability z-score without drug: 0.17; Outcome: inactive
Fhl2 | combined z-score class: no change with or without drug; viability z-score with doxorubicin: 0; viability z-score without drug: 0.34; Outcome: inactive
Ms4a13 | combined z-score class: high cell count without drug only; viability z-score with doxorubicin: 1.35; viability z-score without drug: 2.87; Outcome: inactive
Pcdhga9 | combined z-score class: low cell count with doxorubicin only; viability z-score with doxorubicin: -2.7; viability z-score without drug: -1.18; Outcome: active
Avp | combined z-score class: no change with or without drug; viability z-score with doxorubicin: 0; viability z-score without drug: -0.17; Outcome: inactive
Slc25a46 | combined z-score class: no change with or without drug; viability z-score with doxorubicin: -1.24; viability z-score without drug: -0.51; Outcome: inactive
Or51i2 | combined z-score class: no change with or without drug; viability z-score with doxorubicin: -0.45; viability z-score without drug: 1.01; Outcome: inactive
Abcg8 | combined z-score class: no change with or without drug; viability z-score with doxorubicin: 0.45; viability z-score without drug: 0.84; Outcome: inactive
Tas2r124 | combined z-score class: no change with or without drug; viability z-score with doxorubicin: 0.45; viability z-score without drug: 0.51; Outcome: inactive
Pde8a | combined z-score class: no change with or without drug; viability z-score with doxorubicin: -0.22; viability z-score without drug: -0.67; Outcome: inactive
Arap1 | combined z-score class: low cell count without drug only; viability z-score with doxorubicin: -1.57; viability z-score without drug: -2.87; Outcome: inactive

3 entries from above, sorted by “viability z-score without drug”, ascending:
Sars1 | combined z-score class: low cell count with doxorubicin only; viability z-score with doxorubicin: -3.15; viability z-score without drug: -0.17; Outcome: active
Nudc | combined z-score class: no change with or without drug; viability z-score with doxorubicin: 0.34; viability z-score without drug: 0.17; Outcome: inactive
Fhl2 | combined z-score class: no change with or without drug; viability z-score with doxorubicin: 0; viability z-score without drug: 0.34; Outcome: inactive

Next entries:
Gm14461 | combined z-score class: no change with or without drug; viability z-score with doxorubicin: -0.45; viability z-score without drug: -0.84; Outcome: inactive
Mt2 | combined z-score class: no change with or without drug; viability z-score with doxorubicin: -0.34; viability z-score without drug: -1.18; Outcome: inactive
Limd2 | combined z-score class: no change with or without drug; viability z-score with doxorubicin: 0.79; viability z-score without drug: -0.17; Outcome: inactive
Gbp3 | combined z-score class: no change with or without drug; viability z-score with doxorubicin: -0.45; viability z-score without drug: -0.51; Outcome: inactive
Mad2l1bp | combined z-score class: no change with or without drug; viability z-score with doxorubicin: 0.45; viability z-score without drug: 0.84; Outcome: inactive
Klb | combined z-score class: no change with or without drug; viability z-score with doxorubicin: 0.22; viability z-score without drug: 0.34; Outcome: inactive
Coro1a | combined z-score class: no change with or without drug; viability z-score with doxorubicin: 1.35; viability z-score without drug: 0; Outcome: inactive
F9 | combined z-score class: no change with or without drug; viability z-score with doxorubicin: -0.56; viability z-score without drug: 0; Outcome: inactive
Lce1c | combined z-score class: no change with or without drug; viability z-score with doxorubicin: -0.67; viability z-score without drug: -0.17; Outcome: inactive
Lce1c | combined z-score class: no change with or without drug; viability z-score with doxorubicin: 0.11; viability z-score without drug: -0.17; Outcome: inactive
Isg15 | combined z-score class: no change with or without drug; viability z-score with doxorubicin: 1.12; viability z-score without drug: 0.51; Outcome: inactive
